According to publication doi:10.1101/2023.01.24.525215:
No constants are given. Whether binding was seen depends on the method and setting. Binding seen in cells or lysates may run through a third protein. Some binding calls cover weakened binding; strength is not graded here. Tags and fused reporters may be left off the sequences shown. Blank lines part the entries; values can stand above or below the binder they belong to.

Amino acid sequences for entries named in this document (tags omitted).
UniProt O23320: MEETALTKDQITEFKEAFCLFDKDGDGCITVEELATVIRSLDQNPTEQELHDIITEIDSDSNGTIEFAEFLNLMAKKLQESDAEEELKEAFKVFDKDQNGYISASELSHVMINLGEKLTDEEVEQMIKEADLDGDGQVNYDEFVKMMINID

How the values were obtained:
Assay in all cases: pull-down
[1] = target: CAM5-GST (Arabidopsis thaliana) (UniProt Q682T9)
[2] = target: T1, TGA5-GST (Arabidopsis thaliana) (UniProt Q39163)
T1 sequence: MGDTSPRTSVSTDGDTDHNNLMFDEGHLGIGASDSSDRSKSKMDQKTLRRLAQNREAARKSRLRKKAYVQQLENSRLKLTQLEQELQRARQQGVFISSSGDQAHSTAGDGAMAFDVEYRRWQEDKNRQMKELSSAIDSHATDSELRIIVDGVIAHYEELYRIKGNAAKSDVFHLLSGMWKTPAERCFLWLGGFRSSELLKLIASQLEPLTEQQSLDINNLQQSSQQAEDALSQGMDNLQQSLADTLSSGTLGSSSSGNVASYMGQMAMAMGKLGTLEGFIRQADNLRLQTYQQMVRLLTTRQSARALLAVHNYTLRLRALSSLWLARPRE

[3] = target: GST-CML8 (Arabidopsis thaliana) (UniProt O23320)

binding [1]: binds
binding [2]: binds
B1: WRKY53-His (protein, UniProt Q9SUP6 1-324)
chain: MEGRDMLSWEQKTLLSELINGFDAAKKLQARLREAPSPSSSFSSPATAVAETNEILVKQIVSSYERSLLLLNWSSSPSVQLIPTPVTVVPVANPGSVPESPASINGSPRSEEFADGGGSSESHHRQDYIFNSKKRKMLPKWSEKVRISPERGLEGPQDDVFSWRKYGQKDILGAKFPRSYYRCTHRSTQNCWATKQVQRSDGDATVFEVTYRGTHTCSQAITRTPPLASPEKRQDTRVKPAITQKPKDILESLKSNLTVRTDGLDDGKDVFSFPDTPPFYNYGTINGEFGHVESSPIFDVVDWFNPTVEIDTTFPAFLHESIYY

binding [3]: binds
B2: His-tagged ACA8 (aa 1-180) (domain or fragment, UniProt Q9LF79 1-180)
chain: MTSLLKSSPGRRRGGDVESGKSEHADSDSDTFYIPSKNASIERLQQWRKAALVLNASRRFRYTLDLKKEQETREMRQKIRSHAHALLAANRFMDMGRESGVEKTTGPATPAGDFGITPEQLVIMSKDHNSGALEQYGGTQGLANLLKTNPEKGISGDDDDLLKRKTIYGSNTYPRKKGKG
